Measurements taken from the supplement of paper PMC12823440, “Inhibitors supercharge kinase turnover through native proteolytic circuits” (Nature, 2025).
Where a name gives a salt, the structure may show the parent alone. The list shows a part of the results. Hit calls seldom repeat between salt and free forms of one compound.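 Kinases were expressed as nanoluciferase fusions in K562 cells and luminescence was read every 4 h between 2 and 18 h as percent of control, DMSO set to 100% and a positive control to 0%. A time point counts as decreased when the signal drops significantly (2 sigma). The hit call is the authors' own, does not follow from the count of time points alone, and its rule is not shown.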

Amino acid sequences for entries named in this document (tags omitted). A change or cut given only in a name is not applied to a line headed by its entry.
UniProt P43403: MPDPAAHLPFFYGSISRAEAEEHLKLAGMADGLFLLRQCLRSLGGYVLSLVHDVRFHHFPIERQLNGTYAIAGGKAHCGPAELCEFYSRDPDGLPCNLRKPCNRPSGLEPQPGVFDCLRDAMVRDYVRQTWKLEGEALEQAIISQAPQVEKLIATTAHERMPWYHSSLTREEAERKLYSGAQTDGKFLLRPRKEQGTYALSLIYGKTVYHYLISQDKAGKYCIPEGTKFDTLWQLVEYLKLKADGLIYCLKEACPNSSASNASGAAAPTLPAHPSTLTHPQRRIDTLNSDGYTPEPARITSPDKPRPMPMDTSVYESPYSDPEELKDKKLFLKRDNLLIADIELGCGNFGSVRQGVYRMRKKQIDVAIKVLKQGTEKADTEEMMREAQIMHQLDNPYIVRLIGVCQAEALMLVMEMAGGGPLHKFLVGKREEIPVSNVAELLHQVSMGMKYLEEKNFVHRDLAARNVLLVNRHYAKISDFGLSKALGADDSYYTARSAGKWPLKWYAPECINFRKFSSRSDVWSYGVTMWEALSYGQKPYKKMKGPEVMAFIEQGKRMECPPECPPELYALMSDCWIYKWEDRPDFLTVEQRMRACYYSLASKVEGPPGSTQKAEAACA

Target: ZAK (UniProt Q9NYL2)
Assay: kinase-Nluc reporter destabilization hit call (1 = scored as downregulated) (binary); higher = compound decreases kinase abundance
Details: K562; 2-18 h

kinase-Nluc reporter destabilization hit call, inactive:
Cc1cc2cc(Nc3ccnc(Nc4ccc5[nH]c(C)cc5c4)n3)ccc2[nH]1 (2.5 µM) 0
Cc1cc(Nc2cc(Cl)nc(Oc3ccc([N+](=O)[O-])cc3)n2)n[nH]1 [Autophinib] (2.5 µM) 0
Fc1ccc(-c2nc(-c3ccccc3F)[nH]c2-c2ccncc2)cc1 (2.5 µM) 0
OC(COc1ccc(C(F)(F)F)cc1)CN(Cc1ccccc1)Cc1ccccc1 (stereo unspecified) (2.5 µM) 0
COc1ccc2[nH]cc(/C=C3\C(=O)Nc4ccc(NC(=O)CCN5CCCCC5)cc43)c2c1 (2.5 µM) 0
CS(=O)(=O)c1ccc(-c2noc(C(F)(F)F)c2-c2ccccc2)cc1 (10 µM) 0
COCCO[C@@H]1[C@H](O)[C@@H](CO)O[C@H]1n1cnc2c(=O)[nH]c(N)nc21 [2′-O-(2-Methoxyethyl)guanosine] (10 µM) 0
Cn1cnc(-c2cc3nccc(Oc4ccc(NC(=S)NC(=O)Cc5ccccc5)cc4F)c3s2)c1 [MGCD-265 analog] (10 µM) 0
Cc1noc(C)c1-c1ccc(-c2cc(C(N)=O)c(NC(N)=O)s2)c(O[C@H]2CCNC2)c1 (10 µM) 0
Cc1c(CN2CCN(S(C)(=O)=O)CC2)sc2c(N3CCOCC3)nc(-c3cnc(N)nc3)nc12 (2.5 µM) 0
CC(C)CN(CC(=O)N1CCN(CC(OCc2ccc3ccccc3c2)c2ccc(Cl)cc2Cl)CC1)CC(C)C (stereo unspecified) [LYN-1604 (dihydrochloride)] (2.5 µM) 0
CC/C=C\C/C=C\C/C=C\CCCCCCCC(=O)O [α-Linolenic acid] (10 µM) 0
Nc1ncnc2c1c(-c1ccc(Oc3ccccc3)cc1)nn2C1CCNCC1 [N-piperidine Ibrutinib (hydrochloride)] (10 µM) 0
CC(C)NC(=O)N1CC[C@H](NC2=Nc3cc(F)ccc3N(CC(F)F)c3ccc(Cl)cc32)C1 (10 µM) 0
O=C(Nc1cc(Oc2cc(F)c(NC(=O)C3(C(=O)Nc4ccc(F)cc4)CC3)cc2F)ccn1)C1CC1 [Altiratinib] (10 µM) 0
COCCOc1ccc(-c2cn(-c3ccccc3)c3nc[nH]c(=O)c23)cc1 (10 µM) 0
Cc1ccc2nc(NC(=O)CSc3nc4c(c(=O)n3-c3ccccc3)SCC4)sc2c1 (2 µM) 0
C[C@]1(O)CCC[C@@H]1n1c(=O)c(C(F)F)cc2cnc(NC3CCN(S(C)(=O)=O)CC3)nc21 (10 µM) 0
NC1(Cc2ccc(Cl)cc2)CCN(c2ncnc3[nH]ccc23)CC1 (10 µM) 0
O=C(O)c1cc(O)ccc1O [2,5-Dihydroxybenzoic acid] (10 µM) 0
C=C(CCC=C(C)C)[C@H]1CC[C@]2(C)[C@@H]1[C@H](O)C[C@@H]1[C@@]3(C)CC[C@H](O[C@@H]4O[C@H](CO)[C@@H](O)[C@H](O)[C@H]4O[C@@H]4O[C@H](CO)[C@@H](O)[C@H](O)[C@H]4O)C(C)(C)[C@@H]3CC[C@]12C [Ginsenoside Rk1] (10 µM) 0
CC(C)=CC[C@H](O)C1=CC(=O)c2c(O)ccc(O)c2C1=O [(-)-Alkannin] (2.5 µM) 0
N#Cc1c(-c2ccccc2)cc(-c2cc(Br)ccc2O)[nH]c1=O (10 µM) 0
CCn1c(-c2nonc2N)nc2cnc(Oc3cccc(NC(=O)c4ccc(OCCN5CCOCC5)cc4)c3)cc21 (10 µM) 0
CO[C@H]1C[C@@H]2CC[C@@H](C)[C@@](O)(O2)C(=O)C(=O)N2CCCC[C@H]2C(=O)O[C@H]([C@H](C)C[C@@H]2CC[C@@H](O)[C@H](OC)C2)CC(=O)[C@H](C)/C=C(\C)[C@@H](O)[C@@H](OC)C(=O)[C@H](C)C[C@H](C)/C=C/C=C/C=C/1C [Rapamycin] (10 µM) 0
CC(C)=CCC[C@](C)(O[C@@H]1O[C@H](CO)[C@@H](O)[C@H](O)[C@H]1O)[C@H]1CC[C@]2(C)[C@@H]1[C@H](O)C[C@@H]1[C@@]3(C)CC[C@H](O)C(C)(C)[C@@H]3[C@@H](O[C@@H]3O[C@H](CO)[C@@H](O)[C@H](O)[C@H]3O[C@@H]3O[C@@H](C)[C@H](O)[C@@H](O)[C@H]3O)C[C@]12C [Ginsenoside Re] (10 µM) 0
Cn1c(=O)c(F)c(Nc2ccc(I)cc2F)c2c(=O)n(C[C@@H](O)CO)cnc21 (10 µM) 0

Target: ZAP70 (UniProt P43403)
Assay: as above
Details: K562; 2-18 h

kinase-Nluc reporter destabilization hit call, inactive:
NCc1ccc(Nc2ncc(F)c(Nc3ccccc3)n2)cc1 (10 µM) 0
C=C(C)C(=O)Nc1cccc(-c2ncnc3[nH]cc(C(=O)OCC)c23)c1 (10 µM) 0
CCOc1cc(C(=O)N2CCC(N3CCN(C)CC3)CC2)ccc1Nc1ncc2c(n1)N(C1CCCC1)c1ccccc1C(=O)N2C (10 µM) 0
CCOc1ccc(C(=O)Nc2ncc([N+](=O)[O-])s2)cc1 (10 µM) 0
CNC(=O)Nc1ccc(-c2cc(-c3ccnc(Nc4ccc(C)c(S(=O)(=O)N(C)C)c4)n3)ccn2)cc1 [hSMG-1 inhibitor 11e] (2.5 µM) 0
CNC(=O)c1ccc(-c2cnc3cnc(C(=O)N(C)c4ccc(Cl)cc4)cn23)cc1 (2.5 µM) 0
COc1cccc(-n2c(=O)[nH]c3cc(Cl)n(-c4ccc(-c5cccc(OC)c5O)cc4)c3c2=O)c1 (2.5 µM) 0
O=C(Nc1cccnc1)c1cc(C(=O)c2c(F)cccc2Br)c[nH]1 (10 µM) 0
CN(CC(=O)N(Cc1ccc(C2CCCCC2)cc1)c1ccc(C(=O)O)cc1)S(=O)(=O)c1c(F)c(F)c(F)c(F)c1F (2.5 µM) 0
COc1c(NC(=O)C(=O)c2ccc(OCCN3CCOCC3)c3ccccc23)cc(C(C)(C)C)cc1NS(C)(=O)=O (2.5 µM) 0
CC(C)CC1(O)CCN(C(=O)c2ccc(NS(=O)(=O)c3cccc4nccnc34)cc2)CC1 (10 µM) 0
O=C(/C=C/c1ccc(O)c(O)c1)c1ccc(O[C@@H]2O[C@H](CO)[C@@H](O)[C@H](O)[C@H]2O)c(O)c1O [Marein] (10 µM) 0
Cc1cc2cc(Nc3ccnc(Nc4ccc5[nH]c(C)cc5c4)n3)ccc2[nH]1 (2.5 µM) 0
Cc1cc(Nc2cc(Cl)nc(Oc3ccc([N+](=O)[O-])cc3)n2)n[nH]1 [Autophinib] (2.5 µM) 0
Fc1ccc(-c2nc(-c3ccccc3F)[nH]c2-c2ccncc2)cc1 (2.5 µM) 0
OC(COc1ccc(C(F)(F)F)cc1)CN(Cc1ccccc1)Cc1ccccc1 (stereo unspecified) (2.5 µM) 0
COc1ccc2[nH]cc(/C=C3\C(=O)Nc4ccc(NC(=O)CCN5CCCCC5)cc43)c2c1 (2.5 µM) 0
CS(=O)(=O)c1ccc(-c2noc(C(F)(F)F)c2-c2ccccc2)cc1 (10 µM) 0
COCCO[C@@H]1[C@H](O)[C@@H](CO)O[C@H]1n1cnc2c(=O)[nH]c(N)nc21 [2′-O-(2-Methoxyethyl)guanosine] (10 µM) 0
Cn1cnc(-c2cc3nccc(Oc4ccc(NC(=S)NC(=O)Cc5ccccc5)cc4F)c3s2)c1 [MGCD-265 analog] (10 µM) 0
Cc1noc(C)c1-c1ccc(-c2cc(C(N)=O)c(NC(N)=O)s2)c(O[C@H]2CCNC2)c1 (10 µM) 0
Cc1c(CN2CCN(S(C)(=O)=O)CC2)sc2c(N3CCOCC3)nc(-c3cnc(N)nc3)nc12 (2.5 µM) 0
CC(C)CN(CC(=O)N1CCN(CC(OCc2ccc3ccccc3c2)c2ccc(Cl)cc2Cl)CC1)CC(C)C (stereo unspecified) [LYN-1604 (dihydrochloride)] (2.5 µM) 0
CC/C=C\C/C=C\C/C=C\CCCCCCCC(=O)O [α-Linolenic acid] (10 µM) 0
Nc1ncnc2c1c(-c1ccc(Oc3ccccc3)cc1)nn2C1CCNCC1 [N-piperidine Ibrutinib (hydrochloride)] (10 µM) 0
CC(C)NC(=O)N1CC[C@H](NC2=Nc3cc(F)ccc3N(CC(F)F)c3ccc(Cl)cc32)C1 (10 µM) 0
O=C(Nc1cc(Oc2cc(F)c(NC(=O)C3(C(=O)Nc4ccc(F)cc4)CC3)cc2F)ccn1)C1CC1 [Altiratinib] (10 µM) 0
COCCOc1ccc(-c2cn(-c3ccccc3)c3nc[nH]c(=O)c23)cc1 (10 µM) 0
Cc1ccc2nc(NC(=O)CSc3nc4c(c(=O)n3-c3ccccc3)SCC4)sc2c1 (2 µM) 0
C[C@]1(O)CCC[C@@H]1n1c(=O)c(C(F)F)cc2cnc(NC3CCN(S(C)(=O)=O)CC3)nc21 (10 µM) 0
NC1(Cc2ccc(Cl)cc2)CCN(c2ncnc3[nH]ccc23)CC1 (10 µM) 0
O=C(O)c1cc(O)ccc1O [2,5-Dihydroxybenzoic acid] (10 µM) 0
C=C(CCC=C(C)C)[C@H]1CC[C@]2(C)[C@@H]1[C@H](O)C[C@@H]1[C@@]3(C)CC[C@H](O[C@@H]4O[C@H](CO)[C@@H](O)[C@H](O)[C@H]4O[C@@H]4O[C@H](CO)[C@@H](O)[C@H](O)[C@H]4O)C(C)(C)[C@@H]3CC[C@]12C [Ginsenoside Rk1] (10 µM) 0
CC(C)=CC[C@H](O)C1=CC(=O)c2c(O)ccc(O)c2C1=O [(-)-Alkannin] (2.5 µM) 0
